Article PMC8121430

Biological target: T1, HA-tagged Vangl2 (wild type, full length) (UniProt Q91ZD4)
T1 sequence: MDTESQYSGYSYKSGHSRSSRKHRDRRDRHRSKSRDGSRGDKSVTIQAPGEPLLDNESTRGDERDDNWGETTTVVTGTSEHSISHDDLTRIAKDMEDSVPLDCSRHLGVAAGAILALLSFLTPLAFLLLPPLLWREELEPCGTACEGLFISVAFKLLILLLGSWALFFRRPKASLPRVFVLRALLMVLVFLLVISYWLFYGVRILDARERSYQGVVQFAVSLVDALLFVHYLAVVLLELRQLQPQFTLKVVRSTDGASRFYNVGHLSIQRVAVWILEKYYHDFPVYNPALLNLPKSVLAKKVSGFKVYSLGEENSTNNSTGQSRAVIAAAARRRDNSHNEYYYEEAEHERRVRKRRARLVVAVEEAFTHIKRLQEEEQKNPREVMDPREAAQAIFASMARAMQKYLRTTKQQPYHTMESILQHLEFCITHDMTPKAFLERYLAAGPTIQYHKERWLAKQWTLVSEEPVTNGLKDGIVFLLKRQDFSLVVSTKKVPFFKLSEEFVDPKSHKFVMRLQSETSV
Test: co-IP; overexpressed tagged proteins in HEK293T cells (Flag-tagged KBTBD7 forms, KBTBD6, CUL3; HA-tagged Vangl2 or CUL3); Vangl2-KBTBD7 also tested with or without Wnt5a and the CK1 inhibitor (fig. S5A)

Substance	binding
Flag-tagged KBTBD7-Kelch domain (human (cDNA from HEK293T cells)) (domain or fragment)	binds
Flag-tagged KBTBD7-∆Kelch (human (cDNA from HEK293T cells)) (domain or fragment)	binds weakly

These are yes or no findings as the source states them, for the method shown. In cells and extracts the contact can be indirect. A result given as binding can be weak or reduced; the word gives no strength. Where a sequence is shown, tags or fusion partners need not be part of it.
